Laboratory results published in the supplement of paper PMC8728848.
This is one part of the list.

Experiments:
Assay in all cases: glycan array binding signal (z-score within array); higher = stronger binding
Conditions in all cases: glycan notation: IUPAC condensed, linker removed
Fuc(a1-2)Gal = biological target: Fuc(a1-2)Gal
How it was run: (§1)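 The Consortium for Functional Glycomics database supplied 3228 glycan arrays, of which those lacking an available protein sequence were dropped. The binding signal, a within-array Z-score, was averaged across arrays of the same protein sequence and across linkers. Negative scores can be read as non-binding.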

Fuc(a1-2)Gal(b1-3)GalNAc = biological target: Fuc(a1-2)Gal(b1-3)GalNAc
How it was run: as §1

[1] = biological target: Fuc(a1-2)Gal(b1-3)GalNAc(a1-3)[Fuc(a1-2)]Gal(b1-4)Glc
How it was run: as §1

[2] = biological target: Fuc(a1-2)Gal(b1-3)GalNAc(a1-3)[Fuc(a1-2)]Gal(b1-4)GlcNAc
How it was run: as §1

[3] = biological target: Fuc(a1-2)Gal(b1-3)GalNAc(b1-3)Gal
How it was run: as §1

[4] = biological target: Fuc(a1-2)Gal(b1-3)GalNAc(b1-3)Gal(a1-4)Gal(b1-4)Glc
How it was run: as §1

[5] = biological target: Fuc(a1-2)Gal(b1-3)GalNAc(b1-4)[Neu5Ac(a2-3)]Gal(b1-4)Glc
How it was run: as §1

Fuc(a1-2)Gal(b1-3)GlcNAc = biological target: Fuc(a1-2)Gal(b1-3)GlcNAc
How it was run: as §1

[6] = biological target: Fuc(a1-2)Gal(b1-3)GlcNAc(b1-2)Man(a1-3)[Fuc(a1-2)Gal(b1-3)GlcNAc(b1-2)Man(a1-6)]Man(b1-4)GlcNAc(b1-4)GlcNAc
How it was run: as §1

[7] = biological target: Fuc(a1-2)Gal(b1-3)GlcNAc(b1-2)Man(a1-3)[Fuc(a1-2)Gal(b1-3)GlcNAc(b1-2)Man(a1-6)]Man(b1-4)GlcNAc(b1-4)[Fuc(a1-6)]GlcNAc
How it was run: as §1

[8] = biological target: Fuc(a1-2)Gal(b1-3)GlcNAc(b1-3)Gal(b1-4)Glc
How it was run: as §1

[9] = biological target: Fuc(a1-2)Gal(b1-3)GlcNAc(b1-3)GalNAc
How it was run: as §1

[10] = biological target: Fuc(a1-2)Gal(b1-3)GlcNAc(b1-3)[Fuc(a1-2)Gal(b1-3)GlcNAc(b1-6)]GalNAc
How it was run: as §1

[11] = biological target: Fuc(a1-2)Gal(b1-3)GlcNAc(b1-3)[Gal(b1-4)GlcNAc(b1-6)]Gal(b1-4)Glc
How it was run: as §1

[12] = biological target: Fuc(a1-2)Gal(b1-3)GlcNAc(b1-3)[Neu5Ac(a2-6)Gal(b1-4)GlcNAc(b1-6)]Gal(b1-4)Glc
How it was run: as §1

[13] = biological target: Fuc(a1-2)Gal(b1-3)GlcNAc6S
How it was run: as §1

[14] = biological target: Fuc(a1-2)Gal(b1-3)[Fuc(a1-4)]GlcNAc
How it was run: as §1

[15] = biological target: Fuc(a1-2)Gal(b1-3)[Fuc(a1-4)]GlcNAc(b1-2)Man(a1-3)[Fuc(a1-2)Gal(b1-3)[Fuc(a1-4)]GlcNAc(b1-2)Man(a1-3)]Man(b1-4)GlcNAc(b1-4)GlcNAc
How it was run: as §1

[16] = biological target: Fuc(a1-2)Gal(b1-3)[Fuc(a1-4)]GlcNAc(b1-2)Man(a1-3)[Fuc(a1-2)Gal(b1-3)[Fuc(a1-4)]GlcNAc(b1-2)Man(a1-6)]Man(b1-4)GlcNAc(b1-4)[Fuc(a1-6)]GlcNAc(b1-4)[Fuc(a1-6)]GlcNAc
How it was run: as §1

[17] = biological target: Fuc(a1-2)Gal(b1-3)[Fuc(a1-4)]GlcNAc(b1-3)[Fuc(a1-3)[Gal(b1-4)]GlcNAc(b1-6)]Gal(b1-4)Glc
How it was run: as §1

[18] = biological target: Fuc(a1-2)Gal(b1-3)[Fuc(a1-4)]GlcNAc(b1-3)[Gal(b1-4)GlcNAc(b1-6)]Gal(b1-4)Glc
How it was run: as §1

Fuc(a1-2)Gal(b1-4)Glc = biological target: Fuc(a1-2)Gal(b1-4)Glc
How it was run: as §1

Fuc(a1-2)Gal(b1-4)Glc6S = biological target: Fuc(a1-2)Gal(b1-4)Glc6S
How it was run: as §1

Fuc(a1-2)Gal(b1-4)GlcNAc = biological target: Fuc(a1-2)Gal(b1-4)GlcNAc
How it was run: as §1

[19] = biological target: Fuc(a1-2)Gal(b1-4)GlcNAc(b1-2)Man
How it was run: as §1

[20] = biological target: Fuc(a1-2)Gal(b1-4)GlcNAc(b1-2)Man(a1-3)[Fuc(a1-2)Gal(b1-4)GlcNAc(b1-2)Man(a1-6)]Man(b1-4)GlcNAc(b1-4)GlcNAc
How it was run: as §1

[21] = biological target: Fuc(a1-2)Gal(b1-4)GlcNAc(b1-2)Man(a1-3)[Fuc(a1-2)Gal(b1-4)GlcNAc(b1-2)Man(a1-6)]Man(b1-4)GlcNAc(b1-4)[Fuc(a1-6)]GlcNAc
How it was run: as §1

[22] = biological target: Fuc(a1-2)Gal(b1-4)GlcNAc(b1-2)[Fuc(a1-2)Gal(b1-4)GlcNAc(b1-4)]Man(a1-3)[Fuc(a1-2)Gal(b1-4)GlcNAc(b1-2)Man(a1-6)]Man(b1-4)GlcNAc(b1-4)GlcNAc
How it was run: as §1

[23] = biological target: Fuc(a1-2)Gal(b1-4)GlcNAc(b1-3)Gal(b1-4)GlcNAc
How it was run: as §1

[24] = biological target: Fuc(a1-2)Gal(b1-4)GlcNAc(b1-3)Gal(b1-4)GlcNAc(b1-2)Man(a1-3)[Fuc(a1-2)Gal(b1-4)GlcNAc(b1-3)Gal(b1-4)GlcNAc(b1-2)Man(a1-6)]Man(b1-4)GlcNAc(b1-4)GlcNAc
How it was run: as §1

B1: Blon0732mut (Bifidobacterium longum) (protein)
chain: MPTSEHKADDATRHLTLIPAPVTLEYTHGTALIGPLVTIEDADQSWETLPIEQLSDELRHRYGVTVLRRRTHGTVISLGLDSRLAHDEYTLDVSESEGIRVRGGGESGLRYGLQTLRQIIGQTSRAIPCLHIQDKPAFAVRAYSLDVTRGRVPTMEFLTWFVDQLALYKYNQFQLYVEHAFAFVELSEAWRGTDPLTAADITYLDEYCARRGIELVPSLATFGHMYMNLRTREHRGLGEFPEDADRPFSFIERMEHHTLNAADPKAHDFASRLIEEYAPLFRSKSFNIGGNETFDLGRGRSAQDAPEAGRDELYAGFVRDLCETLARHGRQPMLWADIALESPRTMDLLPGDITMLNWMYEPQIDESKIQTIATQGRRQFVCPAVRAWSRFFPDYAGAWLNTYHMALAGTKYDAEGMVVTDWGDYGHVNDPRLSVPGLCYGAQNAWNPIEIDAHEMNRRISALVYGDESGRIMDCLARIDSDGVSFPWDLAVQVLELEYGSGTGALNMDVAACMERSSGGKLTLDRTLGCDDARRRMLQWNRERIERRRDCDQVLRDCGDAFAGLDKGGLTAEFLSVMLDGQRLFNELGEELLALADGKDVGSGANRLAADLELWFERYRAQWLSVGRHAELARIAHVVWSLADILRRGAL
glycan array binding signal (z-score) (Fuc(a1-2)Gal): 0.288 | glycan array binding signal (z-score) (Fuc(a1-2)Gal(b1-3)GalNAc): -0.563 | glycan array binding signal (z-score) [1]: -0.382 | glycan array binding signal (z-score) [2]: 0.027 | glycan array binding signal (z-score) [3]: -1.26 | glycan array binding signal (z-score) [4]: 0.475 | glycan array binding signal (z-score) [5]: 0.478 | glycan array binding signal (z-score) (Fuc(a1-2)Gal(b1-3)GlcNAc): 0.16 | glycan array binding signal (z-score) [6]: 0.392 | glycan array binding signal (z-score) [7]: 0.26 | glycan array binding signal (z-score) [8]: -0.262 | glycan array binding signal (z-score) [9]: -0.227 | glycan array binding signal (z-score) [10]: -0.488 | glycan array binding signal (z-score) [11]: -1.19 | glycan array binding signal (z-score) [12]: 0.027 | glycan array binding signal (z-score) [13]: 0.454 | glycan array binding signal (z-score) [14]: 0.087 | glycan array binding signal (z-score) [15]: -0.129 | glycan array binding signal (z-score) [16]: 0.926 | glycan array binding signal (z-score) [17]: -0.7 | glycan array binding signal (z-score) [18]: -0.87 | glycan array binding signal (z-score) (Fuc(a1-2)Gal(b1-4)Glc): 1.45 | glycan array binding signal (z-score) (Fuc(a1-2)Gal(b1-4)Glc6S): -0.346 | glycan array binding signal (z-score) (Fuc(a1-2)Gal(b1-4)GlcNAc): -0.24 | glycan array binding signal (z-score) [19]: -1.24 | glycan array binding signal (z-score) [20]: 0.043 | glycan array binding signal (z-score) [21]: -0.552 | glycan array binding signal (z-score) [22]: -0.691 | glycan array binding signal (z-score) [23]: -0.351 | glycan array binding signal (z-score) [24]: -0.325
